In paper PMC4770770:
Results are given in words; binding and its absence hold for the method and conditions named. Binding seen in cells or lysates may run through a third protein.

Molecular target: p53 (human (endogenous in HCT116)) (UniProt P04637)
Test: co-IP; 300 ug whole cell lysate (RIPA) of HCT116 cells, untreated or 24 h after 10 Gy, incubated with 0.5 ug monoclonal p53 antibody; immunoblot for ERp57 and MDM2; control IP with mouse IgG2a isotype control

binding: no binding
Substance: thiol oxidoreductase ERp57 (from UniProt P30101 25-505)
